These results are taken from PubChem BioAssay AID493014 (National Center for Advancing Translational Sciences (NCATS), 2011).

The nature of this experiment: qHTS Assay to Find Inhibitors of Chronic Active B-Cell Receptor Signaling. The settings on record: ABC-DLBCL IkBa-CBG/CBR reporter, luminescence ratio (green luciferase fused to IkBa over red control in TMD8 lymphoma cells), 4 h. In short, it runs like this:
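TMD8 human ABC-DLBCL cells with doxycycline-inducible IκBα–green luciferase fusion and unfused red luciferase, in 0.5% FBS medium; compounds up to 46 uM, 4 h at 37C. Green/red luminescence ratio, filter-overlap corrected, fitted to concentration-response curves.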
A general note: Quantitative high-throughput screening tests each substance at several concentrations.

The mark [1] stands for this setting: measured here: CBR red luminescence, cell number.
Where [2] appears, read: measured here: IkBa-CBG green luminescence.

The term AC50 denotes the midpoint of the concentration-response curve, whichever way the signal moves.

Molecules are shown by their SMILES. The list shows a part of the results. Further columns of the screen follow, without active or inactive calls. Most of these compounds were active or inconclusive in the main read-out, so they are no random draw. The note in brackets gives the kind of curve behind each potency; many fits are weak.

Consider `COc1ccccc1Oc1ccc(S(=O)(=O)Nc2cccnc2)cc1`, for which the AC50 under setting [1] was 29.1 µM [rising, single point].
Regarding `Cc1cc(=O)c(C(=O)O)cn1Nc1ccc(Cl)cc1`, under setting [1], the concentration at half-maximal activity (AC50) is 0.00517 µM [rising, full curve, poor fit].
Regarding `COc1ccc(C(=O)NC(C(=O)NCc2ccccn2)C(C)C)cc1` (configuration not stated), under setting [1], the AC50 is 2.82 µM [rising, full curve].
The same measure, in the same setting: then `CCOC(=O)c1cnc(-n2cc(C)cn2)nc1Nc1ccccc1OC`, with 23.1 µM [rising, single point]; and `C#CCOCCOCCOCCNc1nc(N2CCN(C(=O)CCCCCCCCCCNC(=O)[C@H](CCCCN)n3cc(C)nn3)CC2)nc(N2CCN(C(=O)CCCCCCCCCCNC(=O)[C@@H]([C@H](C)CC)n3cc(CCCCCN)nn3)CC2)n1`, with 29.1 µM [falling, single point].
On the same count and under the same terms, under `Cc1[nH]n(S(=O)(=O)Cc2ccccc2)c(=O)c1N=Nc1ccccc1Cl` stands 7.08 µM [rising, partial curve, poor fit].
`COc1ccccc1NC(=O)Oc1cccc(OC(=O)c2ccccc2)c1`: under setting [2], the AC50 is 5.01 µM [rising, partial curve, poor fit].
Turning to `O=C(NCC(=O)N1CCCCCCC1)c1ccccc1Cl`, the AC50 under setting [1] was 3.26 µM [rising, partial curve, poor fit].
The same measure, in the same setting: under `COc1ccc(C(=O)N(C)Cc2ccccc2F)cc1S(=O)(=O)N1CCCC1` stands 25.9 µM [falling, single point].
Turning to `CCn1c(=O)cc(OCC(=O)Nc2cc(C)ccn2)c2ccccc21`, the concentration at half-maximal activity (AC50) is 8.2 µM [falling, partial curve] under setting [1] and 7.31 µM [rising, partial curve, poor fit] under setting [2].
`CCc1ccccc1NC(=S)NCCSc1ccc(Cl)cc1`: the AC50 under setting [1] is 0.316 µM [rising, full curve, poor fit].
Regarding `CC(/C=C/c1ccc(N(C)C)cc1)=N\N=C1\NC(=O)CC(C(=O)Nc2ccccc2)S1` (configuration not stated), the AC50 under setting [2] is 29.1 µM [falling, single point].
On to `Cc1cc(C)c(S(=O)(=O)N2CCCC(C(=O)N3CCOCC3)C2)c(C)c1` (configuration not stated), for which the AC50 under setting [1] is 17.8 µM [falling, single point].
On the same count and under the same terms, then `Cc1ccc(C)c(S(=O)(=O)Nc2cc(SCC(=O)O)c(O)c3ccccc23)c1`, with 29.1 µM [falling, single point]; and `O=C1N=C(N2CCN(c3cccc4ccccc34)CC2)S/C1=C/c1cccs1`, with 7.31 µM [rising, partial curve, poor fit]; and `COc1ccccc1Nc1nc(N)nc(CN2CCC(C)CC2)n1`, with 5.62 µM [rising, single point].
Take `CCCOc1ccc(C2C(C(=O)c3ccc(C)o3)=C(O)C(=O)N2Cc2ccco2)cc1` (configuration not stated): the AC50 under setting [1] is 5.01 µM [rising, partial curve, poor fit].
In the case of `Cc1c(NS(=O)(=O)c2cccc(C(=O)N3CCCC3)c2)c(=O)n(-c2ccccc2)n1C`, the AC50 under setting [1] is 2.91 µM [rising, partial curve].
With `COc1cccc(N2CC(NC(=O)c3cccc4ccccc34)CC2=O)c1` (configuration not stated), under setting [1], the AC50 was 29.1 µM [rising, single point].
In the case of `CCn1c(=O)c(C(=O)NCCc2ccc(OC)c(OC)c2)c(O)c2ccccc21`, the AC50 under setting [1] is 15.8 µM [falling, single point].
On to `COc1cc(CNCc2ccco2)ccc1OCc1ccccc1`, for which the AC50 under setting [1] is 0.794 µM [rising, full curve, poor fit].
The same measure, in the same setting: under `Cc1ccc2cc(C)c3nnc(SCC(=O)N4CCN(C(=O)c5ccco5)CC4)n3c2c1` stands 14.6 µM [rising, single point]; under `O=C(Nc1ccccc1)c1cccc(-c2nnc(-c3ccccc3)o2)c1`, 0.58 µM [rising, full curve, poor fit].
On the same count and under the same terms, then `Cc1occc1C(=O)N/N=C/c1c[nH]c2ccccc12`, with 10 µM [falling, partial curve, poor fit].
On to `Cc1cccc(C2NC(c3cccc(C)c3)C(C)C(=O)C2C)c1` (configuration not stated), for which, under setting [1], the AC50 is 35.5 µM [rising, single point].
With `Cn1c(=O)c2[nH]c(CNCc3ccccc3Cl)nc2n(C)c1=O`, the half-maximal activity concentration (AC50) under setting [2] is 6.51 µM [falling, single point].
Still for that read-out and setting: then `COc1ccccc1-c1cc(C(=O)N2CCc3ccccc3C2)c2ccccc2n1`, with 35.5 µM [rising, partial curve, poor fit].
As to `CCc1ccc(NC(=O)C(=O)NCc2ccccn2)cc1`, under setting [1], the AC50 was 0.251 µM [rising, full curve, poor fit].
On to `COc1cc(NC(=O)CCc2nnc3ccc(N4CCN(C)CC4)nn23)cc(OC)c1`, for which the AC50 under setting [1] is 35.5 µM [rising, partial curve, poor fit].
The same measure, in the same setting: under `CCOC(=O)C1(Cc2ccccc2)CCN(Cc2cnc(N3CCOCC3)s2)CC1` stands 3.16 µM [falling, single point].
With `COc1ccc(/C=N/NC(=O)CCn2c3ccccc3c3ccccc32)cc1O`, the AC50 reads like this: under setting [1], 16.4 µM [falling, single point]; under setting [2], 2.91 µM [falling, partial curve, poor fit].
Turning to `CCC(C)NC(=O)CCn1c(-c2ccccc2)cc(C(C)=O)c1C` (configuration not stated), the AC50 under setting [1] was 8.2 µM [rising, partial curve, poor fit].
Turning to `CCOC(=O)c1ccc(Nc2nnc(C)c3ccccc23)cc1`, the AC50 under setting [1] was 4.47 µM [rising, full curve, poor fit].
Regarding `COCCCN1Cc2cccc(C(=O)O)c2C1=O`, the AC50 under setting [1] is 5.17 µM [falling, single point].
In the case of `CN(CC(=O)Nc1cc(S(=O)(=O)N2CCCCCC2)ccc1Cl)Cc1ccc2c(c1)OCO2`, the AC50 under setting [1] was 8.2 µM [rising, partial curve, poor fit].
Still for that read-out and setting: under `CCOC(=O)C1=C(c2ccccc2)NC(=S)NC1c1ccc(Cl)cc1` (configuration not stated) stands 14.1 µM [falling, single point]; under `N#C/C(=C\c1ccco1)c1nc2ccccc2s1`, 3.66 µM [rising, partial curve, poor fit].
Regarding `CC(C)c1nc(SCC(=O)c2ccc(F)cc2)c2ccccc2n1`, the AC50 by setting is: under setting [1], 17.8 µM [falling, partial curve]; under setting [2], 35.5 µM [falling, single point].
Take `COc1cc(C)ccc1OCCOCCOc1ccc(C)cc1[N+](=O)[O-]`: the AC50 under setting [1] is 25.9 µM [rising, single point].
